According to patent US10376520B2, “Methods for the treatment of cardiovascular disorders” (Galapagos NV, priority 2015, dated 2019):
This continues a long series; more values of the same kind are listed elsewhere.

How the values were obtained:
Assay type in all cases: in vivo, human
[1] = test system: RA patients; assay: Total cholesterol determination, Study 1 (RA patients with inadequate response to methotrexate, add-on to MTX); settings: for [total cholesterol] Median CFB: Study 1 24 weeks results
Protocol: (§1) Double-blind, placebo-controlled add on study in subjects with moderately to severely active RA who have an inadequate response to methotrexate (MTX) (oral or parenteral).
(§2) 595 subjects randomized to one of 6 dose regimens of Compound 1 (dosed as a [Compound 1:HCl:3H2O]) (3 dose levels administered either once or twice daily) or placebo on top of each subject's stable dose of MTX.
(§3) Compound 1 (dosed as a [Compound 1:HCl:3H2O]) is dosed for twelve weeks once daily (q.d.) (50 mg, 100 mg or 200 mg) or twice daily (b.i.d.) (25 mg, 50 mg or 100 mg); or placebo.
(§4) At Week 12, the subjects on placebo who have not achieved 20% improvement in swollen joint count (SJC66) and tender joint count (TJC68) are re-randomized automatically to receive Compound 1 (dosed as a [Compound 1:HCl:3H2O]) either at 100 mg q.d. or 50 mg b.i.d. doses in a blinded fashion; subjects on 50 mg q.d. who have not achieved 20% improvement in SJC66 and TJC68 will be assigned to 100 mg q.d. and subjects on 25 mg b.i.d. that have not achieved a 20% improvement in SJC66 and TJC68 will be assigned to 50 mg b.i.d. Subjects who switch treatment at week 12 are handled as if they discontinued at week 12 for the purpose of statistical analysis, whereas subjects in the other groups will maintain their randomized treatment until Week 24.
This method is based on the determination of Δ^4 cholestenone after enzymatic cleavage of the cholesterol ester by cholesterol esterase, conversion of cholesterol by cholesterol oxidase, and subsequent measurement by the Trinder reaction of the hydrogen peroxide formed (Allain et al., 1974).
Cholesterol esters are cleaved by the action of cholesterol esterase to yield free cholesterol and fatty acids. Cholesterol oxidase then catalyzes the oxidation of cholesterol to cholest-4-en-3-one and hydrogen peroxide. In the presence of peroxidase, the hydrogen peroxide formed effects the oxidative coupling of phenol and 4-aminophenazone to form a red quinone-imine dye. The color intensity of the dye formed is directly proportional to the cholesterol concentration. It is determined by measuring the increase in absorbance.
Human serum and plasma samples cholesterol determination was done on a Roche/Hitachi Cobas c 701/702 system which automatically calculate the analyte concentration of each sample.

[2] = test system: RA patients; assay: [HDL] determination, Study 1 (RA patients, add-on to MTX)
Protocol: as §1, §2, §3, §4
This assay relies on a homogeneous enzymatic colorimetric test. In the presence of magnesium ions, dextran sulfate selectively forms water-soluble complexes with LDL, VLDL and chylomicrons which are resistant to PEG-modified enzymes.
The cholesterol concentration of [HDL]-cholesterol is determined enzymatically by cholesterol esterase and cholesterol oxidase coupled with PEG to the amino groups (approx. 40%).
In the presence of peroxidase, the hydrogen peroxide generated reacts with 4-amino-antipyrine and Sodium N-(2-hydroxy-3-sulfopropyl)-3,5-dimethoxyaniline (HSDA) to form a purple-blue dye. The color intensity of this dye is directly proportional to the cholesterol concentration and is measured photometrically.
Human serum and plasma samples [HDL] determination was done on a Roche/Hitachi Cobas c 701/702 system which automatically calculate the analyte concentration of each sample. Samples containing precipitates are centrifuged before performing the assay.

[3] = test system: RA patients; assay: Atherogenic index, Study 2 (RA patients, monotherapy); settings: 50 mg q.d. responders
Protocol: As used herein, the term ‘atherogenic index’ refers to
Double-blind, placebo-controlled, monotherapy study in subjects with moderately to severely active RA who have an inadequate response to methotrexate (MTX) (oral or parenteral).
Twelve weeks of treatment with Compound 1 (dosed as a [Compound 1:HCl:3H2O]) at 50 mg, 100 mg, or 200 mg q.d.; or placebo. At Week 12, all subjects on placebo and the subjects on the 50 mg dose who have not achieved 20% improvement in swollen joint count (SJC66) and tender joint count (TJC68) will be assigned to 100 mg q.d. in a blinded fashion and will continue treatment until Week 24. Subjects in the other groups will maintain their randomized treatment until Week 24.
The atherogenic index has been identified to be a good predictor of cardiovascular disorders risks and is calculated as follows: […]

[4] = from 25 mg b.i.d. to 50 mg b.i.d at 12 weeks (N = 17), week 20
[5] = placebo switched to 100 mg q.d. at week 12 (N = 15), week 16
[6] = placebo switched to 100 mg q.d. at week 12 (N = 15), week 20
[7] = placebo switched to 100 mg q.d. at week 12 (N = 15), week 24
[8] = from 25 mg b.i.d. to 50 mg b.i.d at 12 weeks (N = 17), week 16

SMILES: O=C(Nc1nc2cccc(-c3ccc(CN4CCS(=O)(=O)CC4)cc3)n2n1)C1CC1 [Compound 1, cyclopropanecarboxylic acid {5-[4-(1,1-dioxo-thiomorpholin-4-ylmethyl)-phenyl]-[1,2,4]triazolo[1,5-a]pyridin-2yl}-amide]
- [total cholesterol] Median CFB ([1]; continued 25 mg b.i.d, week 1): 0.15 mmol/L
- [total cholesterol] Median CFB ([1]; continued 25 mg b.i.d, week 2): 0.10 mmol/L
- [total cholesterol] Median CFB ([1]; continued 25 mg b.i.d, week 4): 0.10 mmol/L
- [total cholesterol] Median CFB ([1]; continued 25 mg b.i.d, week 8): 0.05 mmol/L
- [total cholesterol] Median CFB ([1]; continued 25 mg b.i.d, week 12): 0.24 mmol/L
- [total cholesterol] Median CFB ([1]; continued 25 mg b.i.d, week 16): 0.10 mmol/L
- [total cholesterol] Median CFB ([1]; continued 25 mg b.i.d, week 20): 0.25 mmol/L
- [total cholesterol] Median CFB ([1]; continued 25 mg b.i.d, week 24): 0.19 mmol/L
- [total cholesterol] Median CFB ([1]; continued 50 mg b.i.d., week 1): 0.21 mmol/L
- [total cholesterol] Median CFB ([1]; continued 50 mg b.i.d., week 2): 0.17 mmol/L
- [total cholesterol] Median CFB ([1]; continued 50 mg b.i.d., week 4): 0.28 mmol/L
- [total cholesterol] Median CFB ([1]; continued 50 mg b.i.d., week 8): 0.22 mmol/L
- [total cholesterol] Median CFB ([1]; continued 50 mg b.i.d., week 12): 0.23 mmol/L
- [total cholesterol] Median CFB ([1]; continued 50 mg b.i.d., week 16): 0.22 mmol/L
- [total cholesterol] Median CFB ([1]; continued 50 mg b.i.d., week 20): 0.37 mmol/L
- [total cholesterol] Median CFB ([1]; continued 50 mg b.i.d., week 24): 0.26 mmol/L
- [total cholesterol] Median CFB ([1]; continued 100 mg b.i.d., week 1): 0.28 mmol/L
- [total cholesterol] Median CFB ([1]; continued 100 mg b.i.d., week 2): 0.31 mmol/L
- [total cholesterol] Median CFB ([1]; continued 100 mg b.i.d., week 4): 0.45 mmol/L
- [total cholesterol] Median CFB ([1]; continued 100 mg b.i.d., week 8): 0.55 mmol/L
- [total cholesterol] Median CFB ([1]; continued 100 mg b.i.d., week 12): 0.80 mmol/L
- [total cholesterol] Median CFB ([1]; continued 100 mg b.i.d., week 16): 0.53 mmol/L
- [total cholesterol] Median CFB ([1]; continued 100 mg b.i.d., week 20): 0.50 mmol/L
- [total cholesterol] Median CFB ([1]; continued 100 mg b.i.d., week 24): 0.42 mmol/L
- [total cholesterol] Median CFB ([1]; continued 200 mg q.d., week 1): 0.25 mmol/L
- [total cholesterol] Median CFB ([1]; continued 200 mg q.d., week 2): 0.34 mmol/L
- [total cholesterol] Median CFB ([1]; continued 200 mg q.d., week 4): 0.33 mmol/L
- [total cholesterol] Median CFB ([1]; continued 200 mg q.d., week 8): 0.54 mmol/L
- [total cholesterol] Median CFB ([1]; continued 200 mg q.d., week 12): 0.36 mmol/L
- [total cholesterol] Median CFB ([1]; continued 200 mg q.d., week 16): 0.34 mmol/L
- [total cholesterol] Median CFB ([1]; continued 200 mg q.d., week 20): 0.47 mmol/L
- [total cholesterol] Median CFB ([1]; increased from 25 mg b.i.d. to 50 mg b.i.d at 12 weeks, week 1): -0.07 mmol/L
- [total cholesterol] Median CFB ([1]; increased from 25 mg b.i.d. to 50 mg b.i.d at 12 weeks, week 2): 0.07 mmol/L
- [total cholesterol] Median CFB ([1]; increased from 25 mg b.i.d. to 50 mg b.i.d at 12 weeks, week 4): -0.15 mmol/L
- [total cholesterol] Median CFB ([1]; increased from 25 mg b.i.d. to 50 mg b.i.d at 12 weeks, week 8): -0.23 mmol/L
- [total cholesterol] Median CFB ([1]; increased from 25 mg b.i.d. to 50 mg b.i.d at 12 weeks, week 12): -0.12 mmol/L
- [total cholesterol] Median CFB ([1]; increased from 25 mg b.i.d. to 50 mg b.i.d at 12 weeks, week 16): 0.09 mmol/L
- [total cholesterol] Median CFB ([1]; increased from 25 mg b.i.d. to 50 mg b.i.d at 12 weeks, week 20): -0.29 mmol/L
- [total cholesterol] Median CFB ([1]; increased from 25 mg b.i.d. to 50 mg b.i.d at 12 weeks, week 24): 0.08 mmol/L
- [total cholesterol] Median CFB ([1]; increased from 50 mg q.d. to 100 mg q.d. at 12 weeks, week 1): 0.05 mmol/L
- [total cholesterol] Median CFB ([1]; increased from 50 mg q.d. to 100 mg q.d. at 12 weeks, week 2): 0.15 mmol/L
- [total cholesterol] Median CFB ([1]; increased from 50 mg q.d. to 100 mg q.d. at 12 weeks, week 4): 0.18 mmol/L
- [total cholesterol] Median CFB ([1]; increased from 50 mg q.d. to 100 mg q.d. at 12 weeks, week 8): 0.16 mmol/L
- [total cholesterol] Median CFB ([1]; increased from 50 mg q.d. to 100 mg q.d. at 12 weeks, week 12): 0.05 mmol/L
- [total cholesterol] Median CFB ([1]; increased from 50 mg q.d. to 100 mg q.d. at 12 weeks, week 16): 0.40 mmol/L
- [total cholesterol] Median CFB ([1]; increased from 50 mg q.d. to 100 mg q.d. at 12 weeks, week 20): 0.35 mmol/L
- [total cholesterol] Median CFB ([1]; increased from 50 mg q.d. to 100 mg q.d. at 12 weeks, week 24): 0.31 mmol/L
- [total cholesterol] Median CFB ([1]; placebo switched to 100 mg q.d. at week 12, week 16): -0.30 mmol/L
- [total cholesterol] Median CFB ([1]; placebo switched to 100 mg q.d. at week 12, week 20): -0.20 mmol/L
- [total cholesterol] Median CFB ([1]; placebo switched to 100 mg q.d. at week 12, week 24): -0.15 mmol/L
- [total cholesterol] Mean percentage CFB - 24 weeks results [1, 4]: −5.02%
- [total cholesterol] Mean percentage CFB - 24 weeks results [1, 5]: −3.17%
- [total cholesterol] Mean percentage CFB - 24 weeks results [1, 6]: −3.11%
- [total cholesterol] Mean percentage CFB - 24 weeks results [1, 7]: −4.73%
- [HDL] Mean CFB - 24 weeks results [2, 8]: 0.05 mmol/L
- [HDL] Median CFB - 24 weeks results [2, 8]: 0.15 mmol/L
- [HDL] Mean CFB - 24 weeks results [2, 4]: -0.02 mmol/L
- [HDL] Median CFB - 24 weeks results [2, 4]: -0.02 mmol/L
- [HDL] Mean CFB - 24 weeks results [2, 5]: -0.06 mmol/L
- [HDL] Median CFB - 24 weeks results [2, 5]: 0.00 mmol/L
- [HDL] Mean CFB - 24 weeks results [2, 6]: -0.04 mmol/L
- [HDL] Median CFB - 24 weeks results [2, 6]: -0.09 mmol/L
- [HDL] Mean CFB - 24 weeks results [2, 7]: -0.03 mmol/L
- [HDL] Median CFB - 24 weeks results [2, 7]: -0.08 mmol/L
- Atherogenic index Mean percentage CFB - 24 weeks results ([3]; week 20): −2.38%
- Atherogenic index Mean percentage CFB - 24 weeks results ([3]; week 24): −6.03%
